The supplement of paper PMC4604168 (melanoma cell lines)
The list shows a part of the results. Repeats are few or missing, and single values can be far off.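 Imaging used 1,536-well plates; nuclei positive for cleaved PARP by antibody were divided by total DNA-stained nuclei to yield the apoptosis fraction. Doses for screening kept most cells viable, and cell lines differ markedly in resting and induced cleaved-PARP levels.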

Key:
Test in all cases: cleaved PARP positive nuclei fraction relative to DMSO control; melanoma cells; higher = more apoptosis
Details in all cases: library dose: low library concentration; 72 h
501Mel = tested on: 501Mel
A101D = tested on: A101D
A2058 = tested on: A2058
A375 = tested on: A375
C32 = tested on: C32
CBRC013 = tested on: CBRC013 (line from a melanoma biopsy)
CBRC014 = tested on: CBRC014 (line from a melanoma biopsy)
CBRC016 = tested on: CBRC016 (line from a melanoma biopsy)
CBRC017 = tested on: CBRC017 (line from a melanoma biopsy)

SMILES | cleaved PARP positive nuclei fraction (501Mel) | cleaved PARP positive nuclei fraction (A101D) | cleaved PARP positive nuclei fraction (A2058) | cleaved PARP positive nuclei fraction (A375) | cleaved PARP positive nuclei fraction (C32) | cleaved PARP positive nuclei fraction (CBRC013) | cleaved PARP positive nuclei fraction (CBRC014) | cleaved PARP positive nuclei fraction (CBRC016) | cleaved PARP positive nuclei fraction (CBRC017)
COc1ccc(-c2ccc3c(N4CCOCC4)nc(N4C[C@@H](C)O[C@@H](C)C4)nc3n2)cc1CO + c1cc(-c2cnn3cc(-c4ccc(OCCN5CCCCC5)cc4)cnc23)ccn1 [Dorsomorphin] (first compound 0.02 µM, partner dose 0.4 µM) | 87.9% | 55.2% | 90.3% | 298% | 40.5% | 327% | 96.4% | 43.6% | 89.8%
O=C(O)c1ccc(-c2c[nH]c3ncc(-c4ccccc4)cc23)cc1C1CCCC1 + Oc1nc(-c2ccc(C(F)(F)F)cc2)nc2c1CSCC2 [XAV939] (first compound 0.16 µM, partner dose 2 µM) | 128% | 71.3% | 71% | 118% | 224% | 375% | 170% | 168% | 91.5%
O=C(Nc1ccccc1)c1cc([N+](=O)[O-])ccc1Cl + COc1cc(N2CCC(N3CCN(C)CC3)CC2)ccc1Nc1ncc(Cl)c(Nc2ccccc2S(=O)(=O)C(C)C)n1 [NVP-TAE684] (first compound 2 µM, partner dose 0.08 µM) | 86.5% | 37.2% | 81.2% | 81.1% | 206% | 623% | 112% | 155% | 90.3%
CCN(CC)CCCCNc1ncc2cc(-c3cc(OC)cc(OC)c3)c(NC(=O)NC(C)(C)C)nc2n1 + O=c1cc(-c2cccc3c2Sc2ccccc2S3)oc(N2CCOCC2)c1 [KU55933] (first compound 0.1 µM, partner dose 1 µM) | 36.2% | 48.9% | 110% | 55.1% | 81.7% | 60.3% | 79.3% | 103% | 59.9%
COc1ccc2c(c1)CCC1C2CCC2(C)C(NCCCCCCN3C(=O)C=CC3=O)CCC12 (stereo not drawn) + O=C1NC(=O)/C(=C/c2ccc(-c3ccc(F)cc3O)o2)S1 [AS252424] (first compound 0.4 µM, partner dose 1 µM) | 41.7% | 178% | 90.4% | 252% | 52.7% | 196% | 135% | 137% | 104%
O=C(O)C(=O)Nc1sc2c(c1C(=O)O)CCNC2 + Cc1cc([N+](=O)[O-])ccc1NS(=O)(=O)c1cc(Cl)ccc1Cl [FH535] (first compound 1.66667 µM, partner dose 1 µM) | 87% | 61.8% | 61.6% | 298% | 83.9% | 35.5% | 118% | 110% | 227%
COc1ccc(-c2ccc3c(N4CCOCC4)nc(N4C[C@@H](C)O[C@@H](C)C4)nc3n2)cc1CO + COc1cc(N2CCC(N3CCN(C)CC3)CC2)ccc1Nc1ncc(Cl)c(Nc2ccccc2S(=O)(=O)C(C)C)n1 [NVP-TAE684] (first compound 0.02 µM, partner dose 0.08 µM) | 176% | 185% | 313% | 318% | 74.9% | 90.9% | 94.2% | 53.6% | 83.4%
O=S(=O)(c1ccccc1)N(CC(F)(F)F)c1ccc(C(O)(C(F)(F)F)C(F)(F)F)cc1 + Cn1cc(/C=C2\C(=O)Nc3cccnc32)c2ccccc21 [GW441756] (first compound 1.4 µM, partner dose 0.4 µM) | 200% | 37.3% | 106% | 110% | 52.7% | 57.2% | 92.6% | 67.5% | 117%
COc1cc2c(Oc3ccc4[nH]c(C)cc4c3F)ncnc2cc1OCCCN1CCCC1 [cediranib] + O=C(Nc1ccccc1)c1cc([N+](=O)[O-])ccc1Cl [GW9662] (first compound 0.4 µM, partner dose 2 µM) | 87.6% | 121% | 48.9% | 133% | 136% | 166% | 100% | 50.1% | 79.9%
O=C(O)C(=O)Nc1sc2c(c1C(=O)O)CCNC2 + O=C1NC(=O)/C(=C/c2ccc(-c3ccc(F)cc3O)o2)S1 [AS252424] (first compound 1.66667 µM, partner dose 1 µM) | 145% | 52.5% | 62.3% | 133% | 182% | 238% | 139% | 42.1% | 145%
O=C(Nc1ccccc1)c1cc([N+](=O)[O-])ccc1Cl + N#Cc1c(O)c2c(-c3ccc(-c4ccccc4O)cc3)csc2[nH]c1=O [A769662] (first compound 2 µM, partner dose 2 µM) | 46.2% | 130% | 52.5% | 127% | 109% | 133% | 103% | 118% | 82%
COc1ccc2c(c1)CCC1C2CCC2(C)C(NCCCCCCN3C(=O)C=CC3=O)CCC12 (stereo not drawn) + COc1ccc(-c2ccc3c(N4CCOCC4)nc(N4C[C@@H](C)O[C@@H](C)C4)nc3n2)cc1CO [KU0063794] (first compound 0.4 µM, partner dose 0.02 µM) | 89.7% | 42.7% | 138% | 83.3% | 49.6% | 340% | 108% | 114% | 81.3%
CN(C)S(=O)(=O)c1ccc2c(c1)/C(=C/c1cc3c([nH]1)CCCC3)C(=O)N2 + CCCCCCCCCCCC1=C(O)C(=O)C=C(O)C1=O [Embelin] (first compound 0.4 µM, partner dose 1.2 µM) | 70.2% | 65.6% | 113% | 122% | 297% | 177% | 90.3% | 85.1% | 187%
O=C(Nc1ccccc1)c1cc([N+](=O)[O-])ccc1Cl + Oc1cc(-c2nc(-c3ccccc3)[nH]c2-c2ccncc2)ccc1Cl [L779450] (first compound 2 µM, partner dose 0.2 µM) | 80.2% | 74.9% | 131% | 63.8% | 217% | 69.3% | 102% | 95.4% | 128%
CCN(CC)CCCCNc1ncc2cc(-c3cc(OC)cc(OC)c3)c(NC(=O)NC(C)(C)C)nc2n1 + O=S(=O)(c1ccccc1)N(CC(F)(F)F)c1ccc(C(O)(C(F)(F)F)C(F)(F)F)cc1 [T0901317] (first compound 0.1 µM, partner dose 1.4 µM) | 87.5% | 59.8% | 98.6% | 191% | 65.9% | 31.9% | 97.8% | 72.9% | 90%
COc1cc2c(Oc3ccc4[nH]c(C)cc4c3F)ncnc2cc1OCCCN1CCCC1 [cediranib] + O=C1NC(=O)/C(=C/c2ccc(-c3ccc(F)cc3O)o2)S1 [AS252424] (first compound 0.4 µM, partner dose 1 µM) | 120% | 105% | 207% | 85.3% | 212% | 92.6% | 90.8% | 52.4% | 77.4%
CCc1ccc(CCOc2ccc(CC3SC(=O)NC3=O)cc2)nc1 (stereo not drawn) [pioglitazone] + Cn1cc(/C=C2\C(=O)Nc3cccnc32)c2ccccc21 [GW441756] (first compound 2 µM, partner dose 0.4 µM) | 34.2% | 127% | 115% | 148% | 86.3% | 213% | 82% | 117% | 149%
COc1ccc(-c2ccc3c(N4CCOCC4)nc(N4C[C@@H](C)O[C@@H](C)C4)nc3n2)cc1CO + Oc1nc(-c2ccc(C(F)(F)F)cc2)nc2c1CSCC2 [XAV939] (first compound 0.02 µM, partner dose 2 µM) | 161% | 122% | 86.1% | 28.7% | 61% | 48% | 107% | 55.9% | 67%
COc1ccc2c(c1)CCC1C2CCC2(C)C(NCCCCCCN3C(=O)C=CC3=O)CCC12 (stereo not drawn) + O=C(O)C(=O)Nc1sc2c(c1C(=O)O)CCNC2 [TCS401] (first compound 0.4 µM, partner dose 1.66667 µM) | 67.9% | 179% | 29.2% | 207% | 146% | 675% | 107% | 50.6% | 87.4%
COC(=O)c1sccc1S(=O)(=O)Nc1ccc(Nc2ccccc2)cc1OC + CC(C)CCN1c2nc(Nc3cc(F)c(O)c(F)c3)ncc2N(C)C(=O)C1C [BID1870] (first compound 1 µM, partner dose 0.2 µM) | 109% | 79.6% | 30.1% | 217% | 153% | 74.2% | 106% | 40.6% | 109%
CCc1ccc(CCOc2ccc(CC3SC(=O)NC3=O)cc2)nc1 (stereo not drawn) [pioglitazone] + Cc1cc([N+](=O)[O-])ccc1NS(=O)(=O)c1cc(Cl)ccc1Cl [FH535] (first compound 2 µM, partner dose 1 µM) | 48.4% | 96.3% | 33.3% | 78% | 58.8% | 114% | 221% | 556% | 364%
CN(NC(=O)CC(=O)NN(C)C(=S)c1ccccc1)C(=S)c1ccccc1 + COc1cc(N2CCC(N3CCN(C)CC3)CC2)ccc1Nc1ncc(Cl)c(Nc2ccccc2S(=O)(=O)C(C)C)n1 [NVP-TAE684] (first compound 0.006 µM, partner dose 0.08 µM) | 263% | 156% | 71.9% | 2720% | 584% | 129% | 704% | 245% | 114%

Record cards (already shown). Order of values: cleaved PARP positive nuclei fraction (501Mel)	cleaved PARP positive nuclei fraction (A101D)	cleaved PARP positive nuclei fraction (A2058)	cleaved PARP positive nuclei fraction (A375)	cleaved PARP positive nuclei fraction (C32)	cleaved PARP positive nuclei fraction (CBRC013)	cleaved PARP positive nuclei fraction (CBRC014)	cleaved PARP positive nuclei fraction (CBRC016)	cleaved PARP positive nuclei fraction (CBRC017)
CCN(CC)CCCCNc1ncc2cc(-c3cc(OC)cc(OC)c3)c(NC(=O)NC(C)(C)C)nc2n1 + O=S(=O)(c1ccccc1)N(CC(F)(F)F)c1ccc(C(O)(C(F)(F)F)C(F)(F)F)cc1 [T0901317] (first compound 0.1 µM, partner dose 1.4 µM) as listed: 87.5%	59.8%	98.6%	191%	65.9%	31.9%	97.8%	72.9%	90%
O=S(=O)(c1ccccc1)N(CC(F)(F)F)c1ccc(C(O)(C(F)(F)F)C(F)(F)F)cc1 + Cn1cc(/C=C2\C(=O)Nc3cccnc32)c2ccccc21 [GW441756] (first compound 1.4 µM, partner dose 0.4 µM) as listed: 200%	37.3%	106%	110%	52.7%	57.2%	92.6%	67.5%	117%
